{"sequences": {"note": "By UniProt entry, the sequences of proteins in these tests, tags left out. Where a name states a change or a piece, a line headed by the entry shows the natural chain unless it says otherwise.", "UniProt O60524": "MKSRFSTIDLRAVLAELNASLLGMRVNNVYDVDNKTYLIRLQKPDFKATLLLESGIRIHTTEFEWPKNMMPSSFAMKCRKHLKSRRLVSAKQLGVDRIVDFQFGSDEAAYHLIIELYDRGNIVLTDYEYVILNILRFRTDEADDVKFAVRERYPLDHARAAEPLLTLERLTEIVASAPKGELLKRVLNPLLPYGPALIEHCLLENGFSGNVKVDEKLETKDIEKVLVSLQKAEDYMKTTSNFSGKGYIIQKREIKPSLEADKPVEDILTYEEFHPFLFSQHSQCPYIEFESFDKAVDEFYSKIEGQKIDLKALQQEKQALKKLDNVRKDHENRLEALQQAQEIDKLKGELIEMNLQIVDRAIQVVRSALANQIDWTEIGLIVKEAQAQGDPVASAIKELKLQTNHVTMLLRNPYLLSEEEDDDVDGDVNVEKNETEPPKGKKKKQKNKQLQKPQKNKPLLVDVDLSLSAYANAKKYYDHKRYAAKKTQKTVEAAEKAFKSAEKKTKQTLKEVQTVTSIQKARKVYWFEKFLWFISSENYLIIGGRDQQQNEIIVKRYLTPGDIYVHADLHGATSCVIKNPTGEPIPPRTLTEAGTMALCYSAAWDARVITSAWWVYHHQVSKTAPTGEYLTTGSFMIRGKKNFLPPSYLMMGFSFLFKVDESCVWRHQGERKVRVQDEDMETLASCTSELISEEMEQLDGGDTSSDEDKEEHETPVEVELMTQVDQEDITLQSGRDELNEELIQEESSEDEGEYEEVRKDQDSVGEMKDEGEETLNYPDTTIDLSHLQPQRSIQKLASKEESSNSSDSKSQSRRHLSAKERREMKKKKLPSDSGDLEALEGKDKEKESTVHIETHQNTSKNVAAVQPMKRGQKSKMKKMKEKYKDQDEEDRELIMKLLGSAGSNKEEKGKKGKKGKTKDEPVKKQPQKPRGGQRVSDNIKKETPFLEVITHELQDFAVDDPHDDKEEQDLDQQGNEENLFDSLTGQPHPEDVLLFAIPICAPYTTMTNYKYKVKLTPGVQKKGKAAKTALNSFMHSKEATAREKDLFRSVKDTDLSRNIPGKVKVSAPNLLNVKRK", "UniProt O14920": "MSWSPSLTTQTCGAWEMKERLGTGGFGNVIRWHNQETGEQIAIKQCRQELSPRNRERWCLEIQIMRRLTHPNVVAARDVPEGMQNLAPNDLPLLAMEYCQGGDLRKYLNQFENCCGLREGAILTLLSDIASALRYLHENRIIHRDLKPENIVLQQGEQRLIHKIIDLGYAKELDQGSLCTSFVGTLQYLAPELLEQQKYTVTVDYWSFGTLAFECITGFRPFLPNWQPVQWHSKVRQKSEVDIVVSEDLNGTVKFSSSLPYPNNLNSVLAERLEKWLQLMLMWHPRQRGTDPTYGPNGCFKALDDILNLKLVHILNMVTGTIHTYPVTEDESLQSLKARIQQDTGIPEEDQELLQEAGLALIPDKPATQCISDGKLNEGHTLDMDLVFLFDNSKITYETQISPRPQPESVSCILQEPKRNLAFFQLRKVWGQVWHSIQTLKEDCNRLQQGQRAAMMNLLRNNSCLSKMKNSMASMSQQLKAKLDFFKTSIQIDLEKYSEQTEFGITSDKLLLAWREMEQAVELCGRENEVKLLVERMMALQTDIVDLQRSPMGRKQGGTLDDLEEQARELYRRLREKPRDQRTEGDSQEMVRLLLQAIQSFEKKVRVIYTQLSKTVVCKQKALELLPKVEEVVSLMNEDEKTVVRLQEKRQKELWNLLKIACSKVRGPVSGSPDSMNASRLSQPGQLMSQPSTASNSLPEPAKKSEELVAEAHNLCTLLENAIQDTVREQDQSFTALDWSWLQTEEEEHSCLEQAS", "UniProt O15111": "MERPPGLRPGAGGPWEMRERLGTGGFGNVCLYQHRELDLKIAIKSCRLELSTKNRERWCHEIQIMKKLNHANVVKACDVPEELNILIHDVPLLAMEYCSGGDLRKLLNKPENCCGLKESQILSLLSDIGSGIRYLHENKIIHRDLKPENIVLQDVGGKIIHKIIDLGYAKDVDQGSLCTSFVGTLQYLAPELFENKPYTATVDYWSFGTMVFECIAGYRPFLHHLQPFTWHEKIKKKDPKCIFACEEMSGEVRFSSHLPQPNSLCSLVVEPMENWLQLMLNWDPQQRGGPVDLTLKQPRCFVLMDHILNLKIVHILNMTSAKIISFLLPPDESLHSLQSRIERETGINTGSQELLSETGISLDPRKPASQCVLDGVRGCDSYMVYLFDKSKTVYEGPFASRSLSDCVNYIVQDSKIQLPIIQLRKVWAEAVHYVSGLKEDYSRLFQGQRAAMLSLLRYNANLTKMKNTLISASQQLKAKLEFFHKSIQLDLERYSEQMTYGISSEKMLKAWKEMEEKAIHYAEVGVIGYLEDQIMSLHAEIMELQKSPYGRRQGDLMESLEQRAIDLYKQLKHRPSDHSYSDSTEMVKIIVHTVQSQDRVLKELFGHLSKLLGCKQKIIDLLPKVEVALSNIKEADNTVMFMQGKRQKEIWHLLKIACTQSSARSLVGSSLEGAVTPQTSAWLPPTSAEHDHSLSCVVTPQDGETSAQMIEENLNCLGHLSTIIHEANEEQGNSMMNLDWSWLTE", "UniProt O43318": "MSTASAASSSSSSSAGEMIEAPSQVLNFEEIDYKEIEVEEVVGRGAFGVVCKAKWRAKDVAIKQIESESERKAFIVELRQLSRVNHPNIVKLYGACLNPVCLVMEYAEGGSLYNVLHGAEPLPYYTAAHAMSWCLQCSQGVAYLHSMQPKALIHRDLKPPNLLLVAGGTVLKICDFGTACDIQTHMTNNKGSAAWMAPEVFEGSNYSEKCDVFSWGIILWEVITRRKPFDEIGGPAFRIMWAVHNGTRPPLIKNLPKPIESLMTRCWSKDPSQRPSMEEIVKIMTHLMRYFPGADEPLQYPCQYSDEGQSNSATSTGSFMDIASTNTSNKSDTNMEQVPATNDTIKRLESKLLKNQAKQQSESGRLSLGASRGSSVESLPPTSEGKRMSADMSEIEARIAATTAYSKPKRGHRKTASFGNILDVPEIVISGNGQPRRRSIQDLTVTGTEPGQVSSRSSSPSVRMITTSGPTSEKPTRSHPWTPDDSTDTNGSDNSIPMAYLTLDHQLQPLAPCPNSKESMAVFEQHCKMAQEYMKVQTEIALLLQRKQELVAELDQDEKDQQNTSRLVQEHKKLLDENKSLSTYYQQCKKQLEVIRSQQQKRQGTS"}, "source": "the supplement of paper PMC6411743", "compound": "Nc1nc2c(ncn2[C@@H]2O[C@H](COP(=O)(O)OP(=O)(O)OP(=O)(O)O)[C@@H](O)[C@H]2O)c(=O)[nH]1 [guanosine triphosphate]", "assay": "NP40-soluble protein abundance relative to vehicle (solubility fold change) (ratio); higher = more soluble protein in presence of GTP", "description": "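Solubility proteome profiling in Jurkat crude lysate. Lysate was treated with Mg-GTP (0.1-10 mM) for 10 min at room temperature and 3 min at 37 °C, then solubilised with 0.8% NP40 and benzonase, followed by ultracentrifugation. Proteins were quantified by TMT10 LC-MS/MS; the value is the NP40-soluble abundance relative to the NP40-processed vehicle, from 3 independent experiments.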", "note": "± gives the standard deviation of the averaged measurements. This is one part of the list."}
{"target": "UniProt O60524 and related entries", "values": [{"measurement": "NP40-soluble protein abundance", "setting": "concentration: 0.1mM", "result": "0.953 ± 0.02"}, {"measurement": "NP40-soluble protein abundance", "setting": "concentration: 0.5mM", "result": "0.949 ± 0.069"}, {"measurement": "NP40-soluble protein abundance", "setting": "concentration: 1mM", "result": "0.955 ± 0.075"}, {"measurement": "NP40-soluble protein abundance", "setting": "concentration: 2mM", "result": "1.06 ± 0.065"}, {"measurement": "NP40-soluble protein abundance", "setting": "concentration: 4mM", "result": "1.08 ± 0.011"}, {"measurement": "NP40-soluble protein abundance", "setting": "concentration: 6mM", "result": "1.15 ± 0.072"}, {"measurement": "NP40-soluble protein abundance", "setting": "concentration: 8mM", "result": "1.16 ± 0.05"}, {"measurement": "NP40-soluble protein abundance", "setting": "concentration: 10mM", "result": "1.26 ± 0.053"}]}
{"target": "UniProt O14920", "values": [{"measurement": "NP40-soluble protein abundance", "setting": "concentration: 0.1mM", "result": "1.022 ± 0.0088"}, {"measurement": "NP40-soluble protein abundance", "setting": "concentration: 0.5mM", "result": "0.9963 ± 0.0081"}, {"measurement": "NP40-soluble protein abundance", "setting": "concentration: 1mM", "result": "0.935 ± 0.015"}, {"measurement": "NP40-soluble protein abundance", "setting": "concentration: 2mM", "result": "0.944 ± 0.03"}, {"measurement": "NP40-soluble protein abundance", "setting": "concentration: 4mM", "result": "0.949 ± 0.024"}, {"measurement": "NP40-soluble protein abundance", "setting": "concentration: 6mM", "result": "0.934 ± 0.032"}, {"measurement": "NP40-soluble protein abundance", "setting": "concentration: 8mM", "result": "0.913 ± 0.017"}, {"measurement": "NP40-soluble protein abundance", "setting": "concentration: 10mM", "result": "0.896 ± 0.027"}]}
{"target": "UniProt O14787-2", "values": [{"measurement": "NP40-soluble protein abundance", "setting": "concentration: 0.1mM", "result": "1.04 ± 0.09"}, {"measurement": "NP40-soluble protein abundance", "setting": "concentration: 0.5mM", "result": "0.98 ± 0.093"}, {"measurement": "NP40-soluble protein abundance", "setting": "concentration: 1mM", "result": "0.992 ± 0.099"}, {"measurement": "NP40-soluble protein abundance", "setting": "concentration: 2mM", "result": "0.981 ± 0.11"}, {"measurement": "NP40-soluble protein abundance", "setting": "concentration: 4mM", "result": "0.997 ± 0.12"}, {"measurement": "NP40-soluble protein abundance", "setting": "concentration: 6mM", "result": "0.936 ± 0.1"}, {"measurement": "NP40-soluble protein abundance", "setting": "concentration: 8mM", "result": "0.962 ± 0.11"}, {"measurement": "NP40-soluble protein abundance", "setting": "concentration: 10mM", "result": "0.979 ± 0.07"}]}
{"target": "UniProt O15111", "values": [{"measurement": "NP40-soluble protein abundance", "setting": "concentration: 0.1mM", "result": "1.03 ± 0.04"}, {"measurement": "NP40-soluble protein abundance", "setting": "concentration: 0.5mM", "result": "1.04 ± 0.07"}, {"measurement": "NP40-soluble protein abundance", "setting": "concentration: 1mM", "result": "0.963 ± 0.052"}, {"measurement": "NP40-soluble protein abundance", "setting": "concentration: 2mM", "result": "0.964 ± 0.081"}, {"measurement": "NP40-soluble protein abundance", "setting": "concentration: 4mM", "result": "0.961 ± 0.06"}, {"measurement": "NP40-soluble protein abundance", "setting": "concentration: 6mM", "result": "0.927 ± 0.061"}, {"measurement": "NP40-soluble protein abundance", "setting": "concentration: 8mM", "result": "0.891 ± 0.013"}, {"measurement": "NP40-soluble protein abundance", "setting": "concentration: 10mM", "result": "0.887 ± 0.024"}]}
{"target": "UniProt O43318 and related entries", "values": [{"measurement": "NP40-soluble protein abundance", "setting": "concentration: 0.1mM", "result": "1.07 ± 0.14"}, {"measurement": "NP40-soluble protein abundance", "setting": "concentration: 0.5mM", "result": "1.02 ± 0.092"}, {"measurement": "NP40-soluble protein abundance", "setting": "concentration: 1mM", "result": "0.97 ± 0.057"}, {"measurement": "NP40-soluble protein abundance", "setting": "concentration: 2mM", "result": "0.988 ± 0.1"}, {"measurement": "NP40-soluble protein abundance", "setting": "concentration: 4mM", "result": "0.977 ± 0.052"}, {"measurement": "NP40-soluble protein abundance", "setting": "concentration: 6mM", "result": "0.971 ± 0.076"}, {"measurement": "NP40-soluble protein abundance", "setting": "concentration: 8mM", "result": "1.04 ± 0.05"}, {"measurement": "NP40-soluble protein abundance", "setting": "concentration: 10mM", "result": "0.968 ± 0.064"}]}
